Data as given in patent US10525115B2 (Immatics Biotechnologies GmbH, priority 2014, dated 2020).

Tests used:
Set-up in all cases: species or system human
primary AML samples [1] = assay: HLA class I ligandome analysis (W6/32 immunoaffinity purification, LC-MS/MS) of primary AML samples; conditions: HLA ligand (LiTAP); AML patients (n=15)
[2] = system: cancer tissues in comparison to non-cancerous tissues and organs; assay: Presentation profile / over-presentation by label-free LC-MS (XPRESIDENT), tumor versus normal tissues, other proliferative diseases; conditions: other proliferative diseases / organs (other than AML) that over- or exclusively present the peptide; Table 5
primary AML samples [3] = assay: HLA class II ligandome analysis (LC-MS/MS) of primary AML samples; conditions: HLA class II ligandome, AML patients n=12

Substance | Number of positive AMLs (primary AML samples [1]) | Proliferative disease and location thereof [2] | Number of positive AMLs (primary AML samples [3])
280 (SLVDQSAAL; listed as Homo sapiens) [compound 280] | 1 | colon or rectum, fibromatosis | –
281 (LELIMSKY; listed as Homo sapiens) [compound 281] | 1 | colon or rectum, ovary, thecoma-fibroma | –
282 (DIKPYIAEY; listed as Homo sapiens) [compound 282] | 3 | pancreas, adenocarcinoma, thymus, thymoma | –
285 (FEFDIHQVI; listed as Homo sapiens) [compound 285] | 2 | stomach, metastatic, breast, carcinoma | –
286 (SENPSKHDSF; listed as Homo sapiens) [compound 286] | 1 | stomach, metastatic, breast, carcinoma | –
287 (NFLRINTI; listed as Homo sapiens) [compound 287] | 1 | colon or rectum, stomach, adenocarcinoma | –
288 (YSGPTSVSR; listed as Homo sapiens) [compound 288] | 1 | colon or rectum, stomach, adenocarcinoma | –
289 (DIYGGDYERF; listed as Homo sapiens) [compound 289] | 1 | colon or rectum, adrenal gland, adrenal cortical carcinoma | –
290 (SARLEKLGY; listed as Homo sapiens) [compound 290] | 1 | stomach, metastatic, prostate, benign nodular; hyperplasia | –
291 (YVFPGVTRL; listed as Homo sapiens) [compound 291] | 1 | stomach, metastatic, prostate, benign nodular; hyperplasia | –
293 (YHSQDRYEF; listed as Homo sapiens) [compound 293] | 3 | stomach, metastatic, non-Hodgkin's lymphoma | –
294 (FPPGRQVVM; listed as Homo sapiens) [compound 294] | 2 | brain, cancer, lymph node, malignant melanoma | –
295 (ILDEAHERTI; listed as Homo sapiens) [compound 295] | 1 | brain, cancer, lymph node, malignant melanoma | –
296 (VIYNEQMASK; listed as Homo sapiens) [compound 296] | 3 | liver, hepatocellular carcinoma, cancer, liver, focal nodular hyperplasia | –
297 (EATSIKRVR; listed as Homo sapiens) [compound 297] | 2 | colon or rectum, adenocarcinoma | –
298 (LPEDKPRLI; listed as Homo sapiens) [compound 298] | 1 | colon or rectum, adenocarcinoma | –
299 (KYPLNLYLL; listed as Homo sapiens) [compound 299] | 2 | kidney, clear cell renal cell carcinoma, lipoma | –
300 (VHESPALILLF; listed as Homo sapiens) [compound 300] | 1 | kidney, clear cell renal cell carcinoma, lipoma | –
301 (EVTGHSKGY; listed as Homo sapiens) [compound 301] | 2 | stomach, adenocarcinoma, rectum, adenocarcinoma | –
302 (RDSEELLQI; listed as Homo sapiens) [compound 302] | 1 | stomach, adenocarcinoma, rectum, adenocarcinoma | –
303 (SPASKTTL; listed as Homo sapiens) [compound 303] | 1 | stomach, adenocarcinoma, rectum, adenocarcinoma | –
304 (DAKTVNVI; listed as Homo sapiens) [compound 304] | 1 | colon or rectum, testis, seminoma | –
305 (DSNATAAKM; listed as Homo sapiens) [compound 305] | 1 | colon or rectum, testis, seminoma | –
306 (RTLNPQMLQK; listed as Homo sapiens) [compound 306] | 1 | colon or rectum, testis, seminoma | –
307 (RTLNPQMLQKK; listed as Homo sapiens) [compound 307] | 1 | colon or rectum, testis, seminoma | –

Substance | Number of positive AMLs (primary AML samples [1]) | Proliferative disease and location thereof [2] | Number of positive AMLs (primary AML samples [3])
308 (LMAEMGVHSV; listed as Homo sapiens) [compound 308] | 1 | stomach, metastatic, breast, carcinoma | –
309 (RLLPPVGTGR; listed as Homo sapiens) [compound 309] | 1 | stomach, metastatic, breast, carcinoma | –
310 (VRIGTILIQTNQ; listed as Homo sapiens) [compound 310] | 1 | stomach, metastatic, breast, carcinoma | –
311 (KELSVLSLI; listed as Homo sapiens) [compound 311] | 1 | stomach, metastatic, lung, neuroendocrine carcinoma | –
312 (TQPHPNTVY; listed as Homo sapiens) [compound 312] | 2 | stomach, metastatic, lung, neuroendocrine carcinoma | –
313 (ALEEQLLKY; listed as Homo sapiens) [compound 313] | 3 | stomach, adenocarcinoma, malignant fibrous; histiocytoma | –
314 (DHFTGAIEKL; listed as Homo sapiens) [compound 314] | 2 | stomach, metastatic, breast, carcinoma | –
315 (KILDLETEL; listed as Homo sapiens) [compound 315] | 1 | stomach, metastatic, breast, carcinoma | –
316 (AEDIPSLKL; listed as Homo sapiens) [compound 316] | 2 | breast, carcinoma | –
317 (DIPSLKLAL; listed as Homo sapiens) [compound 317] | 1 | breast, carcinoma | –
318 (GLDPNKPPEL; listed as Homo sapiens) [compound 318] | 1 | breast, carcinoma | –
319 (FLRDPAEAL; listed as Homo sapiens) [compound 319] | 1 | breast, carcinoma | –
320 (GYGSQGYKY; listed as Homo sapiens) [compound 320] | 1 | breast, carcinoma | –
321 (KLLAEVTLK; listed as Homo sapiens) [compound 321] | 1 | breast, carcinoma | –
322 (SAADGPRVF; listed as Homo sapiens) [compound 322] | 1 | breast, carcinoma | –
323 (KLYELHVFTF; listed as Homo sapiens) [compound 323] | 1 | colon, adenoma | –
324 (YELHVFTF; listed as Homo sapiens) [compound 324] | 1 | colon, adenoma | –
458 (AGTVRRQAVDVSPLR; listed as Homo sapiens) [compound 458] | – | – | 5
459 (IGRAGTVRRQAVDVSPLR; listed as Homo sapiens) [compound 459] | – | – | 1
460 (RAGTVRRQAVDVSPLR; listed as Homo sapiens) [compound 460] | – | – | 4
461 (TVRRQAVDVSPLR; listed as Homo sapiens) [compound 461] | – | – | 1
488 (ALPEFDGKRFQNVAKEG; listed as Homo sapiens) [compound 488] | – | – | 1
489 (PEFDGKRFQNVAK; listed as Homo sapiens) [compound 489] | – | – | 2
545 (ALDFFGNGPPVNYK; listed as Homo sapiens) [compound 545] | – | – | 1
571 (APPTRGPPPSYGGS; listed as Homo sapiens) [compound 571] | – | – | 1
